This is one part of the list.
test system: T1, CTL2-GFP (C. trachomatis L2/434/Bu, GFP-expressing); design: species or system HeLa; Intracellular C. trachomatis growth in HeLa cells, bulk GFP fluorescence relative to DMSO; settings: bulk GFP, single well; 28.5 h, 10 µM; inhibitor
T1 construct: L2/434/Bu, GFP-expressing

SMILES	% of control remaining [%]
COc1ccc(-c2noc(CSc3nc4sc(C)c(C)c4c(=O)n3-c3ccccc3)n2)cc1 [CBK268264]	133.241
CC(=O)Nc1cccc(-n2cc(-c3cccc(C(F)(F)F)c3)nn2)c1 [CBK112938]	101.384
O=C(c1ccco1)N1CCC(n2c(=O)oc3ccccc32)CC1 [CBK284350]	103.648
Cc1cccc(-c2ccc3c(c2)C(=O)N2CC[C@H](NC(=O)NC(C)C)C[C@H]2C(=O)N3)c1C [CBK289567]	119.938
CN(/N=C\c1ccc([N+](=O)[O-])cc1)c1nc(-c2ccccc2)cc(-c2ccccc2)n1 [CBK261517]	105.54
O=C(O)CCCc1ccc2sc3ccccc3c2c1 [CBK010971]	135.965
CN1CCN(CCCNC(=O)C2(c3ccccc3)CCCC2)CC1 [CBK149521]	124.827
N#Cc1c(Nc2cccc(C(F)(F)F)c2)sc(C(=O)c2ccc3c(c2)OCO3)c1N [CBK074399]	10.9748
Nc1ncc(-c2ccc(F)c(Cl)c2)nc1NCCCO [CBK063555]	116.556
CC(C)S(=O)(=O)N1CCC(C(=O)NC(c2ccccc2)c2ccc3ccccc3n2)CC1 (stereo not drawn) [CBK059676]	78.2403
O=C(O)CCc1ccc(-c2cn3ccnc3c(NCc3ccncc3)n2)cc1 [CBK038022]	174.686
Cn1c(=O)c2c(nc(N3CCN(c4cccc(Cl)c4)CC3)n2CC(=O)O)n(C)c1=O [CBK286803]	135.092
CN(C)C(=O)c1cccc(-c2cnc(N3CCOCC3)c3nccn23)c1 [CBK091261]	159.011
O=C(NCN1CCN(c2ccccc2F)CC1)c1cccnc1 [CBK265530]	125.084
CCc1nc2cc(NC(=O)c3csc(C(C)=O)c3)ccc2n1C [CBK282522]	84.733
Cc1oc2c(c1C(=O)NCCn1ccnc1C)CCCC2 [CBK281898]	124.42
NC[C@H]1CC[C@H](C(=O)NCCN2CCc3ccccc32)CC1 [CBK282723]	129.999
O=[N+]([O-])c1ccccc1/C=C/CN1CCN(CCO)CC1 [CBK261863]	122.522
Cc1sc(-c2ccc(C(F)(F)F)cc2)nc1COc1cncc(N2CCNCC2)n1 [CBK172383G]	104.048
CC1CCN(c2ccc(S(=O)(=O)Nc3cc(C(=O)O)cc(C(=O)O)c3)cc2[N+](=O)[O-])CC1 [CBK263886]	106.544
O=C(O)c1cc(C(=O)O)c(-c2ccccc2)c(C(=O)O)c1 [CBK261101]	100

Taken from above:
Under % of control remaining [%], NC[C@H]1CC[C@H](C(=O)NCCN2CCc3ccccc32)CC1 [CBK282723] has 129.999
Under % of control remaining [%], CN(C)C(=O)c1cccc(-c2cnc(N3CCOCC3)c3nccn23)c1 [CBK091261] has 159.011

From article PMC12040169 (PLOS Biology, 2025)
